Data on 5 molecules can be found in patent publication EP4578874A1 (SunRock Biopharma S.L., dated 2025).

Results are given in words; binding and its absence hold for the method and conditions named. Some binding calls cover weakened binding; strength is not graded here.

One experiment has as its target T1, N-terminal 6 (…) (human).
T1 sequence (peptide): SPIPNMADDYG
The experiment can be described thus: peptide inhibition: 1 µg/mL antibody pre-incubated with 100 µg/mL peptide, then binding to MOLT-4 cells by flow cytometry. (In general: In flow cytometry, cells or beads pass a laser one at a time.)

The target in experiment [1] is T2, CCR9 N-terminal peptide 1 (TPTDFTSPIPNMADDYGSESTSS) (human, biotinylated in the ELISA of Example 2 (site not stated)).
T2 construct: Biotin is stated for the ELISA; also called N-terminal 1; biotinylated peptide from the N-terminal region of huCCR9
T2 peptide: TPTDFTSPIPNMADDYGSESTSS
Described as above.

Experiment [2] has as its target T3, hCCR9 peptide I10A-P11A (human).
T3 sequence (peptide): TDFTSPAANMADDYGSEST
Briefly: 2 x Ala-scan with substituted hCCR9 peptides (Fig. 9A).

Experiment [3] deals with T4, human CCR9 (C-C chemokine receptor type 9) (human) (UniProt P51686).
T4 sequence: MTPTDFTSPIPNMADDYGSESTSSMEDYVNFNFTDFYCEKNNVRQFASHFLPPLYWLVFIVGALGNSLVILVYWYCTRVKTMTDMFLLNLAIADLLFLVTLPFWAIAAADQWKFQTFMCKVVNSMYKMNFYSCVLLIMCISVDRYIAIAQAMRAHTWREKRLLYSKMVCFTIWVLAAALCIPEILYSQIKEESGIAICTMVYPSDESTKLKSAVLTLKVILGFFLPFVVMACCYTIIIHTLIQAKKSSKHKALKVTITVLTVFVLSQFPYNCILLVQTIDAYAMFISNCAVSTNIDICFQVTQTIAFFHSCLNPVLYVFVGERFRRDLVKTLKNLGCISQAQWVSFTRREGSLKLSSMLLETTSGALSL
Briefly: screen of murine hybridoma antibodies for affinity to CCR9 (ELISA, then flow cytometry); format not detailed. On the technique in general: An ELISA detects its analyte on a solid surface through an enzyme-linked reagent.

Experiment [4] deals with T3, hCCR9 peptide I10A-P11A (human). The experiment can be described thus: 2 x Ala-scan with substituted hCCR9 peptides (Fig. 9B).
Experiment [5] deals with T5, hCCR9 peptide Y17A-G18A (human).
T5 sequence (peptide): TDFTSPIPNMADDAASEST
The experiment is described as above.

For experiment [6], the target named is T4, human CCR9 (C-C chemokine receptor type 9) (human). The experiment can be described thus: flow cytometry on MOLT-4 cells, pHrodo-labeled antibodies.
Experiment [7] has the same target. Briefly: flow cytometry on MOLT-4 cells, pHrodo-labeled antibody batches.

B1: SRB1 (antibody, V domains shown)
VH: EVQLVESGGGLVKPGGSLRLSCAASGFTFSKFWMNWVRQAPGKGLEWVGEIRLKSNNYATHYAESVKGRFTISRDDSKNTLYLQMNSLKTEDTAVYYCTSDGWFAYWGQGTLVTVSS
VL: DVQMTQSPSSLSASVGDRVTITCRSSQSLVHSNGNTYLNWYQQKPGKAPKLLIYKVSNRFSGVPSRFSGSGSGTDFTLTISSLQPEDFATYYCSQSTHFPRTFGGGTKVEIKR
notes: Detected with anti-human Fc, so it has a human Fc; also called humanised version of the antibody 92R; positive control
As to B1, the binding result (in the experiment with N-terminal 6 (…) (human); in experiment [1]) was “binds” in each case.

B2: C9Mab-16 (antibody, V domains shown)
VH: EVKLEESGGGLVLPGGSMKLSCVASGFTFSDYWMNWVRQSPEKGLEWVAEIRSKSKNYATHYEESVRGRCTISRDDSKSSVYLQMNNLRAEDTGIYFCMFFYSPYWGQGTLVTVSA
VL: DVVMTQTPLSLPVSLGDQASISCRSSQSLVHSNGITFLHWYLQKPGQSPKLLIYKVSNRFSGVPDRFSGSGSGTDFTLKISRVEAEDLGVYFCSQTTHVPWTFGGGTKLEIKR
notes: Murine parental antibody from hybridoma; also called C9M16; clone 16
As for B2, the binding result in experiment [2] and in experiment [3] was “binds” in each case.

B3: C9Mab-19 (antibody, V domains shown)
VH: EVKLEESGGGLVQPGGSMKLSCVASGFTFSNYWMDWVRQSPEKGLEWVAEIRSKSNNYATHYAESMKGRFTISRDDSKSSVYLQMINLRTEDTGIYYCAFYYSPYWGQGTLVTVSA
VL: DVVMTQTPLSLPVSLGDQASISCRSSQSLLHSNGNTFLHWYLQKPGQSPKLLIYKVSNRFSGVPDRFSGSGSGTDFTLKVSRVEAEDLGVYFCSQTTHLPWTFGGGTKLEIKR
notes: Murine parental antibody from hybridoma; also called C9M19; clone 19
With B3, the binding result in experiment [4], in experiment [5] and in experiment [3] was “binds” each time.

B4: huC9Mab16-VL2 pHrodo (antibody, V domains shown)
VH: EVQLVESGGGLVKPGGSLRLSCAASGFTFSDYWMNWVRQAPGKGLEWVGEIRSKSKNYATHYEESVRGRFTISRDDSKNTLYLQMNSLKTEDTAVYYCMFFYSPYWGQGTLVTVSS
VL: DVVMTQSPSSLSASVGDRVTITCRSSQSLVHSNGITFLHWYQQKPGKAPKLLIYKVSNRFSGVPSRFSGSGSGTDFTLTISSLQPEDFATYYCSQTTHVPWTFGGGTKVEIK
modifications: pHrodo fluorophore label (sites not given)
notes: also called pHrodo-labeled huC9Mab16-VL2
Take B4: the binding result in experiment [6] and in experiment [7] was “binds” throughout.

B5: huC9Mab19-VL2 pHrodo (antibody, V domains shown)
VH: EVQLVESGGGLVKPGGSLRLSCAASGFTFSNYWMDWVRQAPGKGLEWVGEIRSKSNNYATHYAESMKGRFTISRDDSKNTLYLQMNSLKTEDTAVYYCAFYYSPYWGQGTLVTVSS
VL: DVVMTQSPSSLSASVGDRVTITCRSSQSLLHSNGNTFLHWYQQKPGKAPKLLIYKVSNRFSGVPSRFSGSGSGTDFTLTISSLQPEDFATYYCSQTTHLPWTFGGGTKVEIK
modifications: pHrodo fluorophore label (sites not given)
notes: also called pHrodo-labeled huC9Mab19-VL2
B5: the binding entry in experiment [6] and in experiment [7] was “binds” throughout.
